Experimental data: the supplement of paper PMC7661543
± gives the standard deviation of the averaged measurements. The effect of the compound repeats well; differences between the knockouts mostly do not.

Test system: HCC-38
Assay: relative cell number vs DMSO control (72 h) (% of DMSO); higher = less growth inhibition (more cells)
Description: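 QMAP-Seq: a pool of 5 breast cancer cell lines (ZR-75-1, SKBR3, HCC-38, MDA-MB-231, BT-20), each carrying 12 doxycycline-inducible Cas9 sgRNA perturbations (11 knockouts plus non-targeting sgNT), was treated with compounds for 72 h at four 10-fold doses (10 nM-10 uM or 1 nM-1 uM range). Barcodes were amplified and sequenced, and cell number was interpolated from 293T spike-in standard curves. The result is expressed as % of the median of DMSO wells. Two biological replicates.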

O=C1NC(=O)[C@@H](c2cn3c4c(cccc24)CCC3)[C@@H]1c1c[nH]c2ccccc12 [Tivantinib]
Conditions	relative cell number
sgRNA knockout: sgATF3, 10 nM	94.6 ± 11
sgRNA knockout: sgATF3, 100 nM	84.4 ± 8.9
sgRNA knockout: sgATF3, 1000 nM	37.9 ± 4.8
sgRNA knockout: sgATF3, 10000 nM	29.2 ± 3.9
sgRNA knockout: sgATF4, 10 nM	87.6 ± 21
sgRNA knockout: sgATF4, 100 nM	83.1 ± 13
sgRNA knockout: sgATF4, 1000 nM	37.8 ± 9.1
sgRNA knockout: sgATF4, 10000 nM	23.9 ± 1.5
sgRNA knockout: sgATF6, 10 nM	112 ± 41
sgRNA knockout: sgATF6, 100 nM	89.7 ± 9.1
sgRNA knockout: sgATF6, 1000 nM	40 ± 0.76
sgRNA knockout: sgATF6, 10000 nM	23.4 ± 8.4
sgRNA knockout: sgATG7, 10 nM	90.1 ± 23
sgRNA knockout: sgATG7, 100 nM	85.1 ± 5.4
sgRNA knockout: sgATG7, 1000 nM	40.3 ± 10
sgRNA knockout: sgATG7, 10000 nM	32.2 ± 2
sgRNA knockout: sgERN1, 10 nM	91.8 ± 21
sgRNA knockout: sgERN1, 100 nM	85.6 ± 18
sgRNA knockout: sgERN1, 1000 nM	39.9 ± 13
sgRNA knockout: sgERN1, 10000 nM	25.8 ± 5
sgRNA knockout: sgHSF1, 10 nM	93.2 ± 26
sgRNA knockout: sgHSF1, 100 nM	98.7 ± 13
sgRNA knockout: sgHSF1, 1000 nM	32.5 ± 11
sgRNA knockout: sgHSF1, 10000 nM	25.6 ± 3.5
sgRNA knockout: sgHSF2, 10 nM	95.7 ± 18
sgRNA knockout: sgHSF2, 100 nM	93.5 ± 17
sgRNA knockout: sgHSF2, 1000 nM	41 ± 1.3
sgRNA knockout: sgHSF2, 10000 nM	24.8 ± 4.9
sgRNA knockout: sgKEAP1, 10 nM	109 ± 4.6
sgRNA knockout: sgKEAP1, 100 nM	92.8 ± 30
sgRNA knockout: sgKEAP1, 1000 nM	38.2 ± 1
sgRNA knockout: sgKEAP1, 10000 nM	26.9 ± 11
sgRNA knockout: sgNFE2L2, 10 nM	88.7 ± 34
sgRNA knockout: sgNFE2L2, 100 nM	85.2 ± 9.2
sgRNA knockout: sgNFE2L2, 1000 nM	37 ± 7.5
sgRNA knockout: sgNFE2L2, 10000 nM	24.1 ± 1.5
sgRNA knockout: sgSLC35F2, 10 nM	83.9 ± 18
sgRNA knockout: sgSLC35F2, 100 nM	84.6 ± 7.1
sgRNA knockout: sgSLC35F2, 1000 nM	40.5 ± 5.7
sgRNA knockout: sgSLC35F2, 10000 nM	25.8 ± 6.2
sgRNA knockout: sgXBP1, 10 nM	86.4 ± 13
sgRNA knockout: sgXBP1, 100 nM	84.3 ± 10
sgRNA knockout: sgXBP1, 1000 nM	40.1 ± 3.6
sgRNA knockout: sgXBP1, 10000 nM	29.6 ± 1.2

CCOC(=O)[C@@]1(CCCCCCOc2ccc(Cl)cc2)CO1 [Etomoxir]
Conditions	relative cell number
sgRNA knockout: sgATF3, 10 nM	106 ± 16
sgRNA knockout: sgATF3, 100 nM	95 ± 14
sgRNA knockout: sgATF3, 1000 nM	105 ± 2.4
sgRNA knockout: sgATF3, 10000 nM	87 ± 4.2
sgRNA knockout: sgATF4, 10 nM	92.3 ± 11
sgRNA knockout: sgATF4, 100 nM	101 ± 21
sgRNA knockout: sgATF4, 1000 nM	107.2 ± 0.47
sgRNA knockout: sgATF4, 10000 nM	93.4 ± 6.5
sgRNA knockout: sgATF6, 10 nM	105 ± 6.2
sgRNA knockout: sgATF6, 100 nM	99.3 ± 5.7
sgRNA knockout: sgATF6, 1000 nM	108 ± 30
sgRNA knockout: sgATF6, 10000 nM	81.5 ± 2.5
sgRNA knockout: sgATG7, 10 nM	97.2 ± 11
sgRNA knockout: sgATG7, 100 nM	95.7 ± 2.9
sgRNA knockout: sgATG7, 1000 nM	104 ± 11
sgRNA knockout: sgATG7, 10000 nM	85.2 ± 8.6
sgRNA knockout: sgERN1, 10 nM	102 ± 22
sgRNA knockout: sgERN1, 100 nM	99 ± 9.1
sgRNA knockout: sgERN1, 1000 nM	109 ± 3
sgRNA knockout: sgERN1, 10000 nM	91.2 ± 3
sgRNA knockout: sgHSF1, 10 nM	107 ± 11
sgRNA knockout: sgHSF1, 100 nM	92.7 ± 4.9
sgRNA knockout: sgHSF1, 1000 nM	108 ± 13
sgRNA knockout: sgHSF1, 10000 nM	87.8 ± 12
sgRNA knockout: sgHSF2, 10 nM	106 ± 9.1
sgRNA knockout: sgHSF2, 100 nM	99 ± 4.9
sgRNA knockout: sgHSF2, 1000 nM	107 ± 1.2
sgRNA knockout: sgHSF2, 10000 nM	86.8 ± 1.2
sgRNA knockout: sgKEAP1, 10 nM	106.2 ± 0.65
sgRNA knockout: sgKEAP1, 100 nM	109 ± 16
sgRNA knockout: sgKEAP1, 1000 nM	112 ± 12
sgRNA knockout: sgKEAP1, 10000 nM	89 ± 29
sgRNA knockout: sgNFE2L2, 10 nM	90.1 ± 12
sgRNA knockout: sgNFE2L2, 100 nM	88.4 ± 8.8
sgRNA knockout: sgNFE2L2, 1000 nM	98.5 ± 3.3
sgRNA knockout: sgNFE2L2, 10000 nM	92.4 ± 1.1
sgRNA knockout: sgSLC35F2, 10 nM	90.9 ± 13
sgRNA knockout: sgSLC35F2, 100 nM	90.6 ± 8.2
sgRNA knockout: sgSLC35F2, 1000 nM	95.9 ± 7.8
sgRNA knockout: sgSLC35F2, 10000 nM	81.5 ± 5.2
sgRNA knockout: sgXBP1, 10 nM	99.7 ± 12
sgRNA knockout: sgXBP1, 100 nM	92.6 ± 9.1
sgRNA knockout: sgXBP1, 1000 nM	105 ± 3.7
sgRNA knockout: sgXBP1, 10000 nM	90.48 ± 0.39

Cn1c(CCCC(=O)O)nc2cc(N(CCCl)CCCl)ccc21 [Bendamustine]
Conditions	relative cell number
sgRNA knockout: sgATF3, 10 nM	112 ± 21
sgRNA knockout: sgATF3, 100 nM	105 ± 20
sgRNA knockout: sgATF3, 1000 nM	122 ± 22
sgRNA knockout: sgATF3, 10000 nM	134 ± 4.5
sgRNA knockout: sgATF4, 10 nM	113 ± 11
sgRNA knockout: sgATF4, 100 nM	96 ± 12
sgRNA knockout: sgATF4, 1000 nM	122 ± 39
sgRNA knockout: sgATF4, 10000 nM	112.7 ± 0.26
sgRNA knockout: sgATF6, 10 nM	116 ± 22
sgRNA knockout: sgATF6, 100 nM	125 ± 29
sgRNA knockout: sgATF6, 1000 nM	120.9 ± 0.92
sgRNA knockout: sgATF6, 10000 nM	145 ± 24
sgRNA knockout: sgATG7, 10 nM	114 ± 10
sgRNA knockout: sgATG7, 100 nM	104 ± 17
sgRNA knockout: sgATG7, 1000 nM	111 ± 25
sgRNA knockout: sgATG7, 10000 nM	129 ± 9.8
sgRNA knockout: sgERN1, 10 nM	106 ± 10
sgRNA knockout: sgERN1, 100 nM	112 ± 24
sgRNA knockout: sgERN1, 1000 nM	110 ± 8.7
sgRNA knockout: sgERN1, 10000 nM	137 ± 2.3
sgRNA knockout: sgHSF1, 10 nM	134 ± 9.3
sgRNA knockout: sgHSF1, 100 nM	131 ± 27
sgRNA knockout: sgHSF1, 1000 nM	120 ± 10
sgRNA knockout: sgHSF1, 10000 nM	191 ± 15
sgRNA knockout: sgHSF2, 10 nM	123 ± 32
sgRNA knockout: sgHSF2, 100 nM	118 ± 29
sgRNA knockout: sgHSF2, 1000 nM	128 ± 29
sgRNA knockout: sgHSF2, 10000 nM	156 ± 7.4
sgRNA knockout: sgKEAP1, 10 nM	126 ± 52
sgRNA knockout: sgKEAP1, 100 nM	156 ± 50
sgRNA knockout: sgKEAP1, 1000 nM	125 ± 4.3
sgRNA knockout: sgKEAP1, 10000 nM	202 ± 12
sgRNA knockout: sgNFE2L2, 10 nM	114 ± 31
sgRNA knockout: sgNFE2L2, 100 nM	101 ± 9.4
sgRNA knockout: sgNFE2L2, 1000 nM	126 ± 47
sgRNA knockout: sgNFE2L2, 10000 nM	108 ± 4.7
sgRNA knockout: sgSLC35F2, 10 nM	113 ± 21
sgRNA knockout: sgSLC35F2, 100 nM	104 ± 20
sgRNA knockout: sgSLC35F2, 1000 nM	114 ± 28
sgRNA knockout: sgSLC35F2, 10000 nM	116 ± 6.1
sgRNA knockout: sgXBP1, 10 nM	111 ± 25
sgRNA knockout: sgXBP1, 100 nM	103 ± 12
sgRNA knockout: sgXBP1, 1000 nM	128 ± 20
sgRNA knockout: sgXBP1, 10000 nM	123.8 ± 0.73
